Source: patent US20250205197A1
At least one structure is not confirmed: it was looked up by name or label, or the drawing left a doubt.

Sequences of proteins named here, by UniProt entry; tags and fusion partners are left off.
UniProt P28223, whole entry: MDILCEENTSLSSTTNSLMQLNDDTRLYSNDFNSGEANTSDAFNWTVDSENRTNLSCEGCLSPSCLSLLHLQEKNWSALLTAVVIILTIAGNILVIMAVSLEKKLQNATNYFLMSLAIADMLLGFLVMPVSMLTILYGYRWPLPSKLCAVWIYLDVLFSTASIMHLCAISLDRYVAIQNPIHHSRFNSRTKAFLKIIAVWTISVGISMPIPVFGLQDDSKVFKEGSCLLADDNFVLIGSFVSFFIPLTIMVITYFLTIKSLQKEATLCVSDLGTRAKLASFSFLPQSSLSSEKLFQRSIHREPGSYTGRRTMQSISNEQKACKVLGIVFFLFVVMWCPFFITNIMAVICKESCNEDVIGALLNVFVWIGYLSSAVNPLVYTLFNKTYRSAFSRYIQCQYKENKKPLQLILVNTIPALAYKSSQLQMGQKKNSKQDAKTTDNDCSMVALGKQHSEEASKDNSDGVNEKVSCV
UniProt P35363, whole entry: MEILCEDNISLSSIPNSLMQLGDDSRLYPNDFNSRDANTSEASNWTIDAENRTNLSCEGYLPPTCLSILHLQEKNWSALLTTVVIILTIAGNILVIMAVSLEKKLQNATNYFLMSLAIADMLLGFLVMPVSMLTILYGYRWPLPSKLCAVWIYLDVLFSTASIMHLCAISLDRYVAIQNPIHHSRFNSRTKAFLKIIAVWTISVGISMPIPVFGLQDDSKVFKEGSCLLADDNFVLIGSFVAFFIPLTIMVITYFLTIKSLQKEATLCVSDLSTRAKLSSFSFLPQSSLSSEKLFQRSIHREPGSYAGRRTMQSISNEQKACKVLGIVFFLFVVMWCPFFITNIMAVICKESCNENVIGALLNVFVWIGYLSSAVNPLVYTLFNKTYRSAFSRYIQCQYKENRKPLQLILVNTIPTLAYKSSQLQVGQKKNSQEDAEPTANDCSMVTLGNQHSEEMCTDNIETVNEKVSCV

Tests used:
5-HT2A receptor [1] = molecular target: 5-HT2A receptor (Homo sapiens, UniProt P28223); details: literature (McKenna and Peroutka 1989; PDSP Certified Data); cited from earlier work
5-HT2A receptor [2] = molecular target: T1, 5-HT2A receptor (Mus musculus, UniProt P35363); assay: Drug-induced Head Twitch Response (HTR) in mice; assay type: in vivo; details: i.p. 1 mg/kg, 15-to-30-minute window following administration, relative to vehicle
T1 construct: tissue Charles River; host or cells: living C57BL/6-Elite mice (brain, in vivo)

In the case of `CN(C)CCc1c[nH]c2cccc(OP(=O)(O)O)c12` [psilocybin], the “binding of intact psilocybin at 5-HT2A” value (5-HT2A receptor [1]) is given as “very weak” and the “Head Twitch Response (HTR)” value (5-HT2A receptor [2]) is given as “Elevated incidences of HTR”.
